# Test results: patent publication US20200179308A1, “USE OF ISOHUMULONES AND DERIVATIVES THEREOF TO TREAT POLYCYSTIC OVARY SYNDROME” (KINDEX PHARMACEUTICALS, INC., priority 2017, published 2020)
# “Also recorded” adds a separate entry of the source. At least one structure is not confirmed: it was looked up by name or label, or the drawing left a doubt.
# Experiments:
# [1] = Weight gain on high fat diet in DIO female mice; format: in vivo; details: female mice on 60% HFD; oral once a day; KDT501 100 mg/kg, PIO 30 mg/kg; compared to VEH
# From the text: To generate DIO mice, 7 week old female mice on a mixed strain background (129SvJ, C57B16, CD1) were placed and maintained on a high fat diet (HFD) for 8 weeks prior to study and throughout the course of study. The high fat diet consisted of 60% Kcal from fat with an energy density of 5.24 kcal/gm (D12492, Research Diets, Inc., New Brunswick, N.J., USA).
# Wood chip bedding was maintained in these cages so that mice would not supplement their diet by eating the standard corncob bedding. Mice were weighed every week. The regular chow diet (Tekland Global 18% protein diet) was 24% Kcal from protein, 58% Kcal from carbohydrate, and 18% Kcal from fat with an energy density of 3.1 kcal/g (Harlan Laboratories, Indianapolis, Ind., USA). All procedures were performed with approval by the Johns Hopkins Animal Care and Use Committee under standard light and dark cycles.
# At 80 days after introduction to high fat diet, the test compounds were administered orally to the mice once a day. […]
# Female mice fed a high fat diet (60% calories from fat) gained approximately 4 grams of weight during the 8 week study period (FIG. 1). […] All data were analyzed with using Prism Software 5 GraphPad Software (La Jolla, CA) and are expressed as means ±SEM. Significance was determined via unpaired two- tailed Student t-test, one- or two-way ANOVA with the appropriate post-hoc tests. […]
# [2] = test system: DIO female mice; test: Serum pituitary gonadotropin (LH, FSH) levels, Luminex Milliplex mouse pituitary panel; format: in vivo; details: KDT501 100 mg/kg, PIO 30 mg/kg oral once a day, compared to VEH
# Method: (§1) To measure serum levels of LH, FSH, insulin, and leptin, serum samples were collected from mice via mandibular bleed. Mice were fasted overnight, and insulin or saline was injected IP according to the body weight of the mice (0.3 units/kg). Samples were obtained between 9:00 and 10:00 am on diestrus for baseline LH and FSH so as to avoid cycle dependent LH surges that occur in the late afternoon on the evening of proestrus. Rodent morning LH levels are not thought to vary in a cycle dependent manner (Helena et al. 2006). For fasting measurements of insulin, samples were also obtained between 9:00 and 10:00 am. Tissues were collected 10 minutes after insulin injection and snap-frozen in liquid nitrogen. Protein was obtained and measured as described previously (Brothers et al. 2010). To quantify the levels of phosphorylated AKT (pAKT), and AKT for different tissues of each individual animal after insulin or saline injection, Bio-Plex Phosphoprotein Detection Multiplex assays were used (Bio-Rad Laboratories, Hercules, Calif.). Protein ([…]) from each tissue was loaded into a 96-well microplate. Assays were conducted using the Luminex 200 system. Values were assessed as mean fluorescent intensity of phospho-specific signal. Serum was analyzed on a Luminex 20015 platform using the Milliplex Map mouse pituitary panel (LH/FSH) and a Milliplex mouse metabolic panel (insulin/leptin; Millipore, Billerica, Mass., USA). The assay detection limit for LH was 0.0019 ng/mL; for FSH, 0.0095 ng/mL; for insulin, 13.0 pg/mL; and for leptin, 4.2 pg/mL. Serum Testosterone was measured by radioimmunoassay at the University of Virginia Ligand Assay Core.
# [3] = test system: DIO female mice; test: Estrous cyclicity by vaginal cytology over 15 consecutive days; format: in vivo
# Method: Diet-induced obesity has been reported to impair estrous cyclicity in female mice (Brothers et al., Wu et al.). In these studies, DIO females were treated with KDT501, PIO or VEH beginning 8 weeks after change to high fat diet. Mice were assessed for estrous cycle stage for 15 consecutive days beginning 10 days after drug/VEH treatment. Vaginal cytology was assessed daily between 9 and 10 am for 15 consecutive days beginning the 10th days after drug treatment. Vaginal cells were collected via saline lavage and then fixed with 100% ethanol and stained with the DIFF Quick Stain Kit (IMEB Inc., San Marcos, Calif., USA). Stages were assessed based on vaginal cytology (Nelson et al. 1982): predominant cornified epithelium indicated the estrus stage, predominant nucleated cells indicated the proestrus stage, both cornified and leukocytes indicated the metestrus stage, and predominant leukocytes indicated the diestrus stage. The percentage of mice at each different cycle stage in each group was calculated.
# [4] = test system: DIO female mice; test: IP-glucose tolerance test (IP-GTT); format: in vivo; details: one month after drug treatment, relative to VEH
# Method: (§2) To begin to assess the effects of drug treatment on glucose metabolism in female DIO mice, IP-glucose tolerance test (IP-GTT) was performed. One month after drug treatment, mice were tested for glucose tolerance by IP-GTT. The mice were fasted overnight for 16 hours, blood was drawn through the tail vein and baseline blood glucose was measured using a OneTouch Ultra glucometer. 20% dextrose was injected IP (2 g/kg body weight). Sample blood glucose was measured at 15, 30, 60, 90 and 120 minutes. One week after IP-GTT, the mice were tested for whole body insulin sensitivity by insulin tolerance test (ITT). Mice were fasted for seven hours, blood was drawn through the tail vein and baseline blood glucose was measured as above. 0.3 units/kg insulin was injected IP. Blood glucose of each mouse were measured at 15, 30, 60, 90 and 120 minutes. Area under the curve (AUC) was calculated for both the IP-GTT and the ITT.
# [5] = test system: DIO female mice; test: Insulin tolerance test (ITT), whole body insulin sensitivity; format: in vivo
# Method: as §2
# [6] = test system: DIO female mice; test: Liver lipid accumulation, H&E staining quantified with ImageJ; format: in vivo; details: KDT501 100 mg/kg, PIO 30 mg/kg, relative to VEH
# Method: Liver tissues were collected and placed immediately in 10% formalin. 5 μm sections of tissue were stained with H&E by the Johns Hopkins Molecular and Comparative Pathobiology Phenotyping Core. Quantification of the area of fat in liver tissue was measured with NIH imageJ software and compared across groups.
# [7] = test system: DIO female mice; test: Fasting serum insulin, leptin and IL-6 by Luminex assay; format: in vivo; details: between VEH, KDT501 and PIO groups
# Method: as §1
# [8] = test system: DIO male mice; details: cited from earlier work
compound,measurement,setting,value
"CCc1ccc(CCOc2ccc(CC3SC(=O)NC3=O)cc2)nc1 (stereo not shown) [PIO, Pioglitazone, reference compound]",weight gain (Δ weight from week 0) over the 8 week study period,[1],no difference in weight gain
same,morning serum FSH level,[2],not significantly altered
same,morning serum LH level,[2],not significantly altered
same,ratio of LH/FSH,[2],no significant difference
same,percentage of mice that had one complete estrous cycle,"[3]; 15 day period, KDT501 100 mg/kg, PIO 30 mg/kg",Roughly an even percentage
same,number of complete estrous cycles per mouse,"[3]; 15 days of analysis, compared to VEH","more complete cycles than VEH treated mice, but the difference was not significant"
same,glucose tolerance (blood glucose after IP dextrose),"[4]; 16 h fast, 2 g/kg dextrose IP",improved glucose tolerance
same,"glucose tolerance, IP-GTT area under the curve (AUC)",[4],not significantly improved
same,"insulin sensitivity, ITT area under the curve (AUC)","[5]; 0.3 units/kg insulin IP, relative to VEH",improved insulin sensitivity
same,fasting glucose levels (7 hrs fasting),"[5]; before insulin injection, compared to VEH controls",lower fasting glucose levels
same,fat / lipid accumulation in liver,[6],significantly lower amount of lipid deposition; also recorded: significant reduction in fat
same,fasting serum IL-6 level,[7],not significantly different; also recorded: No significant differences
same,fasting serum insulin level,[7],not significantly different; also recorded: No significant differences
same,fasting serum leptin level,[7],not significantly different; also recorded: No significant differences
same,weight gain in males,[8]; Konda et al. 2014,increased weight gain
same,lipid content in the liver (hepatic steatosis) in males,[8]; relative to VEH,significant increase in lipid content
